Results from patent US20170216315A1 (priority 2016, published 2017).
Marks after values point to notes of the source that are not given here.

Key:
[1] = Feed intake, relative weight of organs and of fat pads; format: in vivo, mice; conditions: for Feed intake: Lieber-DeCarli alcoholic liquid diet
Description: C-1. The feed intakes of mice were recorded every day (4 mice from each group were randomly picked for recording, and an average of the 4 mice was taken). The changes in the mice body weight were recorded at the last day of every week (i.e., an average of 8 mice from each group), over a four-week period.
C-4. After “C-3” was completed, the mice were sacrificed. The weights of the mice hearts, livers, kidneys, spleens, and abdominal and epididymal fat pads were measured and recorded; the mice livers were washed with sterilized saline, and then the liver appearances were recorded by a camera. The collected organs and feces were stored at −80° C. for the following analysis (recording, sample collection and storage were conducted for all of the 8 mice from each group).
The average values of daily feed intakes of mice of each group recorded in [Preparation Examples] Besides, the weights of mice organ and fat of each group obtained from [Preparation Examples] C-4 were averaged, respectively, and then the average weights (g) were divided by the average body weights of mice in week 4 from the corresponding group to obtain the relative weights of organs and the relative weights of fat.

[2] = Change of mice body weight; format: in vivo; conditions: FIG. 1

In the case of `CC(C)[C@@H](C)/C=C/[C@@H](C)[C@H]1CC[C@H]2C3=CCC4C[C@@H](O)CC[C@]4(C)C3=CC[C@]12C` (stereo partly drawn) [EK100], the “Feed intake compared to control” value ([1]; EK100 1, 5, 10 mg/kg/day + alcoholic diet vs control, p<0.05) is reported as “significantly lower”, the Feed intake ([1]; EK100_1X: 1 mg/kg-body weight/day gavage) is reported as 6.57 ± 0.10^c g/each mouse/day and the Feed intake ([1]; EK100_5X: 5 mg/kg-body weight/day gavage) is reported as 7.09 ± 0.04^b g/each mouse/day. The Feed intake ([1]; EK100_10X: 10 mg/kg-body weight/day gavage) was 6.72 ± 0.21^c g/each mouse/day, the “Body weight, difference between groups” value ([2]; week 1, all groups incl. EK100 1, 5, 10 mg/kg/day, p>0.05) was “did not show any significant differences” and the “Body weight compared to control” value ([2]; week 2 and week 4, EK100 1, 5, 10 mg/kg/day + alcoholic diet vs control (normal liquid diet), p<0.05) was “significantly lower”.
